In publication doi:10.1101/2020.03.21.001826:
No constants are given. Whether binding was seen depends on the method and setting. For some assays here: Binding seen in cells or lysates may run through a third protein. Some binding calls cover weakened binding; strength is not graded here. For some assays here: Sequences can lack the tags named with a protein.

Assays:
[1] = target: AvrPtoB-GFP (dexamethasone-inducible, pTA7001) (Pseudomonas syringae) (UniProt Q8RSY1); assay: co-IP
[2] = target: SnRK1.1 fused to the GAL4 DNA binding domain (pGBKT7) (Arabidopsis) (UniProt Q38997); assay: two-hybrid
[3] = target: T1, SnRK2.8 fused to the GAL4 DNA binding domain (pGBKT7) (Arabidopsis) (UniProt Q9M9E9); assay: two-hybrid
T1 sequence: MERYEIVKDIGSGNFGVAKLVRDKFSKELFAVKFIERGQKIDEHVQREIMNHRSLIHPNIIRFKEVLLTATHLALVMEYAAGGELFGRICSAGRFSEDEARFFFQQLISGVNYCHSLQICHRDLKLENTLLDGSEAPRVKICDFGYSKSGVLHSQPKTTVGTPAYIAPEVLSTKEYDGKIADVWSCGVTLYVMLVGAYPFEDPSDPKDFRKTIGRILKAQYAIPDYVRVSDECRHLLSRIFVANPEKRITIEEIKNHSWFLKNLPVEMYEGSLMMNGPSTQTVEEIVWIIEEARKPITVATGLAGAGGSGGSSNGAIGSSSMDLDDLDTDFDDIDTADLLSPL

[4] = target: T2, SnRK2.6 fused to the GAL4 DNA binding domain (pGBKT7) (Arabidopsis) (UniProt Q940H6); assay: two-hybrid
T2 sequence: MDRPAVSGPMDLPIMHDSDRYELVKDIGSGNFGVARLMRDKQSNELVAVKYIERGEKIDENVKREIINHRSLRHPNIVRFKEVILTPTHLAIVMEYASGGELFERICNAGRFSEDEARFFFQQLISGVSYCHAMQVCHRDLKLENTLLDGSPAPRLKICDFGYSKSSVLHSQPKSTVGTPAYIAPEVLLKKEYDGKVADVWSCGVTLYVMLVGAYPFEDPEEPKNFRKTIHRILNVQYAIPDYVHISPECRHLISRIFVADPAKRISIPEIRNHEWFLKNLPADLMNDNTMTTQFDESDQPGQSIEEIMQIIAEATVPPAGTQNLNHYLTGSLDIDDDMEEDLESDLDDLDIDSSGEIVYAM

Substance: SnRK2.8-KD-HA (kinase dead, K33A) (from UniProt Q9M9E9 1-343) (enzyme)
- binding [1]: binds

Substance: AvrPtoB fused to the GAL4 activation domain (pGADT7-AvrPtoB) (from UniProt Q8RSY1 1-553)
- binding [2]: binds
- binding [3]: binds
- binding [4]: binds

Substance: SnRK1.1-KD-HA (kinase dead, K71A) (from UniProt Q38997-1 1-535) (enzyme)
- binding [1]: binds weakly
